Source: article PMC13483900

Chains of the proteins cited; added tags and fusions are not shown. Chains listed by the source or under a name are the forms on record and can include a tag or linker.
TPP1/POT1 (human), one chain, as listed by the source, chain 2 of 2: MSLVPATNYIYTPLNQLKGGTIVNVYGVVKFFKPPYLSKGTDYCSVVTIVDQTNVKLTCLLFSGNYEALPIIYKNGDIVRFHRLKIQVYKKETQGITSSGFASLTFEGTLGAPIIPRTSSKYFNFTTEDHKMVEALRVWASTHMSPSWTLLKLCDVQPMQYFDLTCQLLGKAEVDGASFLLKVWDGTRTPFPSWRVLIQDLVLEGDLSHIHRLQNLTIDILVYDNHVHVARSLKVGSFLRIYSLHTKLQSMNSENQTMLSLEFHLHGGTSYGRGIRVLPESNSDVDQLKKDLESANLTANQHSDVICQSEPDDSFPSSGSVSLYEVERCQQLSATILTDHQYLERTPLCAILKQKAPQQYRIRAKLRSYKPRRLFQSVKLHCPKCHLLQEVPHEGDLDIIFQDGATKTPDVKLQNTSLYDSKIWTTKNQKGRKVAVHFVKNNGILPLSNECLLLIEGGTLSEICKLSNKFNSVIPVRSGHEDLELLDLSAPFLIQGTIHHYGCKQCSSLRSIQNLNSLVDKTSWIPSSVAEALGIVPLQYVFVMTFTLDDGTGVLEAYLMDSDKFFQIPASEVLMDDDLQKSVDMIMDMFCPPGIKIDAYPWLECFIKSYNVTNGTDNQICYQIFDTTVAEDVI
CST (CTC1-STN1-TEN1) (human), one chain, as listed by the source, chain 2 of 3: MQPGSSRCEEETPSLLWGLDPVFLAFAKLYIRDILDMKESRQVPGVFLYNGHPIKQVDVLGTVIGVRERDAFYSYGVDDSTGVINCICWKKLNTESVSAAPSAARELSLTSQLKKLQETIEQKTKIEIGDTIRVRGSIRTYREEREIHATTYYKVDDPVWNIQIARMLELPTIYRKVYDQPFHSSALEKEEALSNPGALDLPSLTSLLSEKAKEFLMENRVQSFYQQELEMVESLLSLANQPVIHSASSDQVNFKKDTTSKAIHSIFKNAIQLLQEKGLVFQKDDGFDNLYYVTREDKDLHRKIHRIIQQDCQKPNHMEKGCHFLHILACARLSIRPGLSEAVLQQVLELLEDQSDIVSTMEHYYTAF
TPP1/POT1 (human), one chain, as listed by the source, chain 1 of 2: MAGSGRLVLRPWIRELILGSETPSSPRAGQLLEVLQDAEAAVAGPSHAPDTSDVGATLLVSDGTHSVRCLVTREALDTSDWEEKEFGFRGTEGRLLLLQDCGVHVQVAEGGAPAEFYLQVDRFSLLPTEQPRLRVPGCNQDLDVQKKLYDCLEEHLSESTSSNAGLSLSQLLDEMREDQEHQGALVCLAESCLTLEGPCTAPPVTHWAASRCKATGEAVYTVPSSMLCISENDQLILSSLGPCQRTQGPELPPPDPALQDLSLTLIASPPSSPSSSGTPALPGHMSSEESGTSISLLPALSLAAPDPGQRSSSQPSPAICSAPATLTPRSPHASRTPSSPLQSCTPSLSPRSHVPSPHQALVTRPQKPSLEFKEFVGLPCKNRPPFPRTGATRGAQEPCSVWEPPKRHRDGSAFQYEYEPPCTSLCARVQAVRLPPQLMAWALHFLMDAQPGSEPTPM
CST (CTC1-STN1-TEN1) (human), one chain, as listed by the source, chain 3 of 3: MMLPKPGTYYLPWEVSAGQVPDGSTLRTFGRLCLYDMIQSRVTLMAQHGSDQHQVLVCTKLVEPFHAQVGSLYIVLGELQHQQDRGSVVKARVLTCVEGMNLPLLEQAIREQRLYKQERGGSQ
CST (CTC1-STN1-TEN1) (human), one chain, as listed by the source, chain 1 of 3: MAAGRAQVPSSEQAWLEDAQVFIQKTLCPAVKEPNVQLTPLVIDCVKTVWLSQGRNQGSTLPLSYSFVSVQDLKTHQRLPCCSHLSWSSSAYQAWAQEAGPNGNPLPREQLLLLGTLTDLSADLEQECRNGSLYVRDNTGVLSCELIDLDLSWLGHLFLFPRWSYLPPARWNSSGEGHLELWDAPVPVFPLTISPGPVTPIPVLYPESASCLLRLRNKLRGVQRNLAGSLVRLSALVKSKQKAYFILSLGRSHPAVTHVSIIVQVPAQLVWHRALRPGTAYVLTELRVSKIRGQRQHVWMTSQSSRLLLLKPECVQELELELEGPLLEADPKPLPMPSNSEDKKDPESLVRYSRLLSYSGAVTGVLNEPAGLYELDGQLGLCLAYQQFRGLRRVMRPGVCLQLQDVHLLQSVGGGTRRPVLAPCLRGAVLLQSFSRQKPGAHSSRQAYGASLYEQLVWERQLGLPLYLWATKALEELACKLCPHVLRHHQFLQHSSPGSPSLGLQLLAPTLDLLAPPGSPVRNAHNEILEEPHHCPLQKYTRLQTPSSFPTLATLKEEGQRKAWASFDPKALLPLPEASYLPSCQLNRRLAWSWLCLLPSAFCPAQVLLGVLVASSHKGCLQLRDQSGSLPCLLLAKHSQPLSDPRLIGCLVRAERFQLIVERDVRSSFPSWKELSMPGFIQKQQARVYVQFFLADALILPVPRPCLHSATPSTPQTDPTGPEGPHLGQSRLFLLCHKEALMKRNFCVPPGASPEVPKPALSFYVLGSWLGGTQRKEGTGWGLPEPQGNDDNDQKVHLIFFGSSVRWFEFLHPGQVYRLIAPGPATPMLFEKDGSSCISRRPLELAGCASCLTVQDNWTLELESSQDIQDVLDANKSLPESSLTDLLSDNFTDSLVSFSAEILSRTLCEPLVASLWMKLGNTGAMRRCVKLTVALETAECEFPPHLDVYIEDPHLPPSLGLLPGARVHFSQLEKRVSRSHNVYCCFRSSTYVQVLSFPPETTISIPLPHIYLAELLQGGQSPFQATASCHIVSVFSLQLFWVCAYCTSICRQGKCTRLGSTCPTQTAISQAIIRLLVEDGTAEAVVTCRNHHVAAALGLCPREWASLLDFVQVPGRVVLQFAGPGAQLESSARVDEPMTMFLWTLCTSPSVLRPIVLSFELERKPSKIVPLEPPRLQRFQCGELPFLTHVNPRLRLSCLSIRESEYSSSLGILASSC

Key:
[1] = tested on: CST (CTC1-STN1-TEN1) (human); test: pull-down; settings: streptavidin beads, 10 mM Mg(OAc)2, CST displaces TPP1/POT1 from the ssDNA; pull-down: 25 mM HEPES-KOH pH 7.6, 80 mM K-glutamate, 10 mM Mg(OAc)2, 5% glycerol, 0.02% Tween-20, 1 mM TCEP, 0.1 mM EDTA, 15 min 37 C; recombinant protein; protein details: 3xFLAG-CTC1, 6xHis-TEN1; label: 5' biotin (streptavidin beads); single-stranded DNA
TPP1/POT1 (human) = test: pull-down; settings: streptavidin beads, 10 mM Mg(OAc)2, competed off by CST; pull-down: 25 mM HEPES-KOH pH 7.6, 80 mM K-glutamate, 10 mM Mg(OAc)2, 5% glycerol, 0.02% Tween-20, 1 mM TCEP, 0.1 mM EDTA, 15 min 37 C; recombinant protein; protein details: StrepII on TPP1; label: 5' biotin (streptavidin beads); single-stranded DNA

TTAGGGTTAGGGTTAGGGCGTCTATATTCTATTGTCTC [CLB401 telomeric ssDNA, 3x TTAGGG at 5' end]
binding result [1]: binds | binding result (TPP1/POT1 (human)): binds

For at least one entry, the source does not settle the construct or the ends of the probe. At least one verdict was read from the data and is not stated in words by the source.
